Test results as given in patent publication US20150337051A1 (MORPHOTEK, published 2015).
Results are given in words; binding and its absence hold for the method and conditions named. Some results given as binding are weak or reduced against the parent protein; the word gives no strength. Where a sequence is shown, tags or fusion partners need not be part of it. One block for each binder: values may come before it.

What was measured:
[1] = target: T1, recombinant CHO TEM-1 Fc fusion protein (UniProt Q9HCU0); experiment: ECL sandwich assay on streptavidin plate, TEM-1 Fc fusion protein as calibrator
T1 sequence (looked up): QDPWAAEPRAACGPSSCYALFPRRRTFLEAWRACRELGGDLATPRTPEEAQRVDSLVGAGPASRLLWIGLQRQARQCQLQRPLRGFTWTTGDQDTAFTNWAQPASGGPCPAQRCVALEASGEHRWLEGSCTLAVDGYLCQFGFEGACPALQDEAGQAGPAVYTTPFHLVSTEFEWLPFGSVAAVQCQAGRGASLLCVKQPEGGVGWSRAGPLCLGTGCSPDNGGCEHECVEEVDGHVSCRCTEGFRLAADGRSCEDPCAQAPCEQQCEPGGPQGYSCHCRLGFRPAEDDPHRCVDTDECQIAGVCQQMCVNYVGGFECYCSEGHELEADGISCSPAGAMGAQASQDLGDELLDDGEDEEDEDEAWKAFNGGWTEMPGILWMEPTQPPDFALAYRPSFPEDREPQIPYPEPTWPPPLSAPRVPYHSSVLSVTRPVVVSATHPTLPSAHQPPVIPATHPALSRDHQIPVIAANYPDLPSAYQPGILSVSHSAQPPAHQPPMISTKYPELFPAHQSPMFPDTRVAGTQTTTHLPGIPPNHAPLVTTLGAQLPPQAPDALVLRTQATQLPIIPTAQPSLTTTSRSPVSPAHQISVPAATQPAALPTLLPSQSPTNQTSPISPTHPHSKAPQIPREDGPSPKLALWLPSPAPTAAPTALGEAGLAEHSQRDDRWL

[2] = target: T1, recombinant CHO TEM-1 Fc fusion protein; experiment: ECL sandwich assay on streptavidin plate: biotin-9G5 capture, sulfo-TAG-15F8 detection, TEM-1-Fc standard titrated

binding [1]: binds
binding [2]: binds
B1: Antibody 9G5 (antibody, V domains shown)
VH: EVKLEESGGGLVQPGMSVKLSCATSGFTFSDYWMEWVRQAPGKGLEWVAEIRNKLNNYVTNYGKPVRGRFTISRDDSKSIVYLQVNSIRSEDTGIYYCTRIQRVITTGEYFDYWGQGVMVTVSS
VL: DIQMTQSPSLLSASEGDRVTLSCKASQNIYKYLNWYQQKLGEAPKLLIYNINNLQTGIPSRFSGSGSGTDFTLTISSLQPEDVATYYCYQYNSGRAFGGGTKLELK
notes: Rat monoclonal antibody from hybridoma, IgG1/kappa; also called 9G5.F2.C1.F4; anti-TEM-1 clone 9G5

binding [1]: binds
binding [2]: binds
B2: Antibody 15F8 (antibody, V domains shown)
VH: EVQLVESGGGLVQPGRSMKLSCSASGFTFRNYYMAWVRQAPTRGLEWVASTGTGGDFTYYRDSVKGRFTISRDTAENTLYLQMDSLRSEDTATYYCARAYGYFDYWGQGVKVTVSS
VL: DIVLTQSPTTLSVTPGETVSLSCRASHSVGTNLHWYQQKPNESPRLLIKYVSQSNSGIPSRFSASGSGTDFTLNIKNVEFNDVSSYFCQQTQSWPLTFGAGTKLEIK
notes: Rat monoclonal antibody from hybridoma, IgG2a/kappa; also called 15F8.G6.B4; ATCC PTA-12540
